Our source for the binding values is doi:10.1101/863738.

Assay in all cases: two-hybrid
The target of test [1] is T1, BLR08 (Bremia lactucae) (UniProt P0CU87).
T1 sequence: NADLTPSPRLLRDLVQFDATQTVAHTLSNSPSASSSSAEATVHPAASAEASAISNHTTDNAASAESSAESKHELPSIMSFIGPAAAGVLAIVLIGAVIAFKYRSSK

Test [2] deals with T2, BLN04 (Bremia lactucae).
T2 sequence: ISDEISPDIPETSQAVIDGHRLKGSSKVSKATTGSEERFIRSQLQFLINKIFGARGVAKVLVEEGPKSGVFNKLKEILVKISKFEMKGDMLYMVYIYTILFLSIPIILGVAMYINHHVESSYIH

Test [3] concerns the target T3, BLR05 (Bremia lactucae) (UniProt P0CU86).
T3 sequence: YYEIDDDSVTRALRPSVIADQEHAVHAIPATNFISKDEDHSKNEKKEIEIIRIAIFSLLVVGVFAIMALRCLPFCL

For test [4], the target named is T4, BLR09 (Bremia lactucae) (UniProt P0CU88).
T4 sequence: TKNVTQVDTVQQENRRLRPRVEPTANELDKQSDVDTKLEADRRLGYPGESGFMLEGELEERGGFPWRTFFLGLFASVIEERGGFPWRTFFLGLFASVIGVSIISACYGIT

For test [5], the target named is T5, BLR38 (Bremia lactucae).
T5 sequence: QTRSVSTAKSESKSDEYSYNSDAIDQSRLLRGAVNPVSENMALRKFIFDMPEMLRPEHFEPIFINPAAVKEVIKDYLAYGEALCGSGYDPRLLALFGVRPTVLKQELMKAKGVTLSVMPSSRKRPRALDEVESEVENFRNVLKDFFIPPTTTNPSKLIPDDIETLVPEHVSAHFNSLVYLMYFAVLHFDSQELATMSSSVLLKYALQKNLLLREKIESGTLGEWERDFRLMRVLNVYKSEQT

No constants are given. Whether binding was seen depends on the method and setting. Binding calls can cover weak binding; strength is not graded here.

As to LsNAC069 (Lactuca sativa), the binding result in test [1], in test [2], in test [3] and in test [4] was “binds” each time.
In the case of LsFLX-like2 (Lactuca sativa), the binding entry in test [5] is listed as “binds”.
